# Values quoted from earlier work, collected in PMC10052025 (Pharmaceutics, 2023).
# Target: T1, OATP1B1 (Homo sapiens, UniProt Q9Y6L6)
# T1 sequence (Q9Y6L6 1-691): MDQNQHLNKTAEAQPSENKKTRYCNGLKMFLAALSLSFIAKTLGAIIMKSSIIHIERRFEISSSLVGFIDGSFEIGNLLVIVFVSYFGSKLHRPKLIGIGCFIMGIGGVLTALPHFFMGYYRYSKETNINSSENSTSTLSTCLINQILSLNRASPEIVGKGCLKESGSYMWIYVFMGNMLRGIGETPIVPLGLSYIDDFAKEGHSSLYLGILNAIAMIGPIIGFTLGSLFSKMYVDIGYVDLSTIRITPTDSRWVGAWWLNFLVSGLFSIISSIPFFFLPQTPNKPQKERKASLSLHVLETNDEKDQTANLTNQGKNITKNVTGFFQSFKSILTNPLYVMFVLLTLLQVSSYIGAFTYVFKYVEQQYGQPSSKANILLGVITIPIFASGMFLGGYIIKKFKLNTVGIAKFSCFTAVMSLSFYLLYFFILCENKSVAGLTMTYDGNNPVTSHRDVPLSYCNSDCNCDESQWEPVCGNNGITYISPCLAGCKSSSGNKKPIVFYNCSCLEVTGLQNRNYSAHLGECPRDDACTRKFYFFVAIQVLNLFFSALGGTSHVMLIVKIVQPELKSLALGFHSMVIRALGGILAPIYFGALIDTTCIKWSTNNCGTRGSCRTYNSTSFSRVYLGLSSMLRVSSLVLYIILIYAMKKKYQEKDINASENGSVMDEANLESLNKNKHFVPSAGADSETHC
# Set-up: FLAG; expressed in transfected cells
# Conditions: 20 µM; cited from earlier work
smiles,measurement,value
COC(=O)C1=C(C)NC(C)=C(C(=O)OC)C1c1ccccc1[N+](=O)[O-] [nifedipine],inhibition of OATP1B1-mediated transport,> 50%
